Changes are numbered by the printed parent chain. Results are given in words; binding and its absence hold for the method and conditions named. Binding seen in cells or lysates may run through a third protein. Some binding calls cover weakened binding; strength is not graded here. For some of these results: Tags and fused reporters may be left off the sequences shown.
Legend:
[1] = biological target: T1, GSDMD, endogenous in THP-1-derived macrophages (human (endogenous in THP-1)) (UniProt P57764); test: co-IP; endogenous proteins in THP-1-derived macrophages (mock, LPS, LPS plus ATP, poly(dA:dT) or flagellin; wild type, USP18-KD or USP18-KO); antibodies plus Protein A/G beads at 4 °C overnight
T1 sequence: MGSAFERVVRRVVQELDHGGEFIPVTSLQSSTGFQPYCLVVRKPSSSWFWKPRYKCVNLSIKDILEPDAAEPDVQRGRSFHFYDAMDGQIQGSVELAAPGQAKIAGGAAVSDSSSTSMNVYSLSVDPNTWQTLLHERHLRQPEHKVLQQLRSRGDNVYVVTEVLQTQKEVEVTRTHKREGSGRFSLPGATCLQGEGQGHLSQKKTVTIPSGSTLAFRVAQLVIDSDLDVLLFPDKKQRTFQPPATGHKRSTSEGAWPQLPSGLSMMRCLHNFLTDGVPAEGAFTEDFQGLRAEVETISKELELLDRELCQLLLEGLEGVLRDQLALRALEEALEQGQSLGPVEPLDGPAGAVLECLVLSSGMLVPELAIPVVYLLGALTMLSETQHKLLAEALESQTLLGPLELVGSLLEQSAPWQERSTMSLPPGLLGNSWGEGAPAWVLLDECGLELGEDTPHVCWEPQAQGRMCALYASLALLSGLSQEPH

Sequences of proteins named here, by UniProt entry; tags and fusion partners are left off. A change or cut given only in a name is not applied to a line headed by its entry.
UniProt Q96CV9: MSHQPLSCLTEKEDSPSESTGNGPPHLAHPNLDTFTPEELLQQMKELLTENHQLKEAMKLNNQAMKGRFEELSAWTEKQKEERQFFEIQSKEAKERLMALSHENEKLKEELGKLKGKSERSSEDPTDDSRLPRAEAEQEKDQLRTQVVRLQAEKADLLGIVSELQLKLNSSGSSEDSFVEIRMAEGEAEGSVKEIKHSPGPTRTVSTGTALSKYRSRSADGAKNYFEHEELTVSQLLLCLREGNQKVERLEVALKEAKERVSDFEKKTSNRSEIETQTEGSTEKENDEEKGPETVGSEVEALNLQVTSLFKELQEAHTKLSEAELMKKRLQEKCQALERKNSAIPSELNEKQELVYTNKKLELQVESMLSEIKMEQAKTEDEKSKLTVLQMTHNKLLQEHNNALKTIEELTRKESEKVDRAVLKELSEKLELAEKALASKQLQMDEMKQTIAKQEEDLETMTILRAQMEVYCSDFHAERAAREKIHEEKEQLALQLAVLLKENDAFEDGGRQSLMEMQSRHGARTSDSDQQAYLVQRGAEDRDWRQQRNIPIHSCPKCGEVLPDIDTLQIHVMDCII
UniProt P29466: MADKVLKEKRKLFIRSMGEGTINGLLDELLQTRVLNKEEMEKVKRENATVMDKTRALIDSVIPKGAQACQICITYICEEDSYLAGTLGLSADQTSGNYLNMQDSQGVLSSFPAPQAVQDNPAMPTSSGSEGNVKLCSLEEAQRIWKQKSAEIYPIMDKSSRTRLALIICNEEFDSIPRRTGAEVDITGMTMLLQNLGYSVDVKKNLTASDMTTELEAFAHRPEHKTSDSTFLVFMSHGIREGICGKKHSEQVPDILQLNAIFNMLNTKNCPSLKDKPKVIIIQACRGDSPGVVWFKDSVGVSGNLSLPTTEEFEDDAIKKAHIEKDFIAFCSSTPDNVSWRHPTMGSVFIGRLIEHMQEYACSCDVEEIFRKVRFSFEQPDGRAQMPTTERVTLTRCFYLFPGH

[2] = biological target: T2, Flag-GSDMD, wild type (human) (UniProt P57764); test: co-IP; HEK293T cells transfected with tagged proteins; lysates with anti-Flag or anti-Myc beads at 4 °C overnight, washed with low-salt lysis buffer (50 mM HEPES pH 8.0, 150 mM NaCl, 1% Triton X-100); Fig. 3M to O after Baf A1 (0.2 μM, 6 h)
T2 sequence: T1 sequence

[3] = biological target: T3, Flag-GSDMD K168R (human) (UniProt P57764); test: co-IP; BECN1-KO HEK293T cells transfected with Myc-CASP1 or Myc-CASP4 and Flag-GSDMD WT or K168R for 24 h; level of co-precipitated Myc-CASP1/4 quantified
T3 sequence: T1 sequence with K168R

[4] = biological target: T2, Flag-GSDMD, wild type (human); test: as above
[5] = biological target: T4, GSDMD, wild type, as used in the co-precipitations of the supplementary figures (S1D, S2Q, S5C, S6D, S6E) (human) (UniProt P57764); test: co-IP; co-precipitations of the supplementary figures (S1D, S2Q, S5A to C, S6D and E); legends not shown; HEK293T cells where the text tells; S2Q with control or USP18 knock-down, S5C with overexpressed USP18 or USP18 C64A
T4 sequence: T1 sequence

OPTN, endogenous in THP-1-derived macrophages (from UniProt Q96CV9 1-577)
binding [1]: binds

HA-p62 (from UniProt Q13501 1-440)
binding [2]: binds

Myc-caspase-1 (from UniProt P29466 1-404) (enzyme)
binding [3]: binds
binding [4]: binds

HA-OPTN (from UniProt Q96CV9 1-577)
binding [2]: binds

OPTN, as used in Fig. S2Q (from UniProt Q96CV9 1-577)
binding [5]: binds

p62, endogenous in THP-1-derived macrophages (from UniProt Q13501 1-440)
binding [1]: binds
